Patent US10357491B2, “Method of treating a brain tumor” (BeyondSpring Pharmaceuticals, Inc., priority 2015, dated 2019)
At least one compound was matched to its structure with a doubt left.

Test system: PDGF-induced gliomas
Experiment: PDGF-induced model of glioma: response to temozolomide (T2 weighted MRI, survival)
Type: in vivo
Settings: glioma-bearing mice; temozolomide 25 mg/kg daily for 12 days; tumors recurred after treatment

Cn1nnc2c(C(N)=O)ncn2c1=O [temozolomide]
outcome after treatment (survival curves, FIG. 2B): all animals died of recurrent tumor
